This passage reports PFU/well results from patent US12433913B2, “Treatment of acute respiratory disease syndrome (ARDS) with polysulfated polysaccharides” (Paradigm Biopharmaceuticals Ltd., priority 2020, dated 2025).

The test relates to SARS-CoV-2. In kind it is cell-based, Vero (Africa Green Monkey kidney epithelium). The conditions noted are these: replicates.

Values joined by “and” are separate entries in the source; they are usually repeats but may differ in a detail not shown here. Equal entries are not always repeated. Where two headings read alike, the source gives them in different places. This continues a long series; more values of the same kind are listed elsewhere.

For the substance pentosan polysulfate [PPS], the PFU/well reads like this: (PPS 25 μg/ml on Vero cells 30 min prior to infection with 50 PFU) 28 PFU/well and 32 PFU/well; (PPS 50 μg/ml on Vero cells 30 min prior to infection with 50 PFU) 17 PFU/well and 20 PFU/well and 32 PFU/well and 25 PFU/well and 31 PFU/well and 29 PFU/well and 27 PFU/well and 24 PFU/well; (PPS 100 μg/ml on Vero cells 30 min prior to infection with 50 PFU) 20 PFU/well and 19 PFU/well and 22 PFU/well (2×) and 23 PFU/well and 21 PFU/well (2×) and 25 PFU/well.
